Reference: patent US20260140118A1, “COMBINATION DRUG” (CHUGAI SEIYAKU KABUSHIKI KAISHA, priority 2022, published 2026)
At least one structure is not confirmed: it was looked up by name or label, or the drawing left a doubt.

How the values were obtained:
DTP cells = assay: Cell growth suppression test on DTP cells; type: cell-based, human
Method: (§1) Next, for these nine compounds, a cell growth suppression test was conducted, and the ratio of IC50 of DTP cells with respect to the parental line was calculated.

[1] = test system: NCI-H2228 cells (parental cells); assay: Cell growth suppression test on NCI-H2228 parental cells; type: cell-based, human
Method: as §1

## C[C@H]1Oc2cc(cnc2N)-c2c(nn(C)c2C#N)CN(C)C(=O)c2ccc(F)cc21 [Lorlatinib, (10R)-7-amino-12-fluoro-2,10,16-trimethyl-15-oxo-10,15,16,17-tetrahydro-2H-4,8-methanepyrazolo[4,3-h][2,5,11]benzoxadiazacyclotetradecine-3-carbonitrile]
DTP cells
  Sensitivity of DTP cells: did not exhibit sensitivity
[1]
  Sensitivity of NCI-H2228 cells: exhibited sensitivity
